Data taken from PubChem BioAssay AID504834 (National Center for Advancing Translational Sciences (NCATS), 2011).
In all, about 320,000 compounds went through this assay and about 22,000 (6.9%) were called active. The inconclusive results got no clear call from the source; some entries with a clear call stand among them for comparison. Calls come from the whole dose curve; as a rule, active = well fitted inhibition curve with a large enough effect; inconclusive = small, poorly fitted or top-dose-only effect, or another doubt; inactive = no such curve, though single readings can be large or run the other way. Potencies of inconclusive entries are doubtful fits and often do not repeat.

assay: Primary qHTS for delayed death inhibitors of the malarial parasite plastid, 96 hour incubation; settings: P. falciparum luciferase reporter growth; series mostly up to 28.7 µM; activity change, negative = inhibition: at the top concentration
Summary of the method: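 Readout is luminescence from an integrated firefly luciferase in P. falciparum. Red cells, 2% hematocrit and 0.05% parasitemia final, were cultured with compound through two parasite generations (96 hours) at 37 C, 5% CO2.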
% is set by controls: 0 for no effect and ±100 for the full control effect; potency is the fitted concentration of half-maximal effect.

Row | Structure (SMILES) | activity change, negative = inhibition | Potency
1 | CCN(C(=O)COC(=O)CCc1c[nH]c2ccccc12)c1c(N)n(Cc2ccccc2)c(=O)[nH]c1=O | inactive: 0.154% | –
2 | O=C(/C=C/c1ccccc1)c1cc(Br)ccc(=O)c1O | – | inconclusive: 10.4 µM [inhibitor, partial curve, poor fit]
3 | CCOC(=O)c1nc2ccccc2c(C)c1C | – | inconclusive: 16.5 µM [inhibitor, single point]
4 | COCCNc1nnc(SC(C)C(=O)Nc2ccc(-c3nc4ccc(C)cc4s3)cc2)s1 (configuration not stated) | – | inconclusive: 18.5 µM [inhibitor, single point]
5 | O=C(c1csc2ccccc12)N1CCN(c2ccccn2)CC1 | – | inconclusive: 18.5 µM [inhibitor, single point]
6 | Cc1ccc(CNC(=O)C(Cc2ccccc2)NS(=O)(=O)c2ccc(Br)s2)cc1 (configuration not stated) | inactive: 39.2% | –
7 | CCc1ccc(C(=O)CN2C(=O)NC(C)(CCc3ccccc3)C2=O)cc1 (configuration not stated) | inactive: 21.6% | –
8 | CC(C)NC(=O)c1onc(CSc2ccc(Cl)cc2)c1C(=O)NC(C)C | – | active: 3.29 µM
9 | CC(C)C[C@H]1CN=C(Nc2ccccc2)N1CC1CCC(C)CC1 (some centres not stated) | – | inconclusive: 13.1 µM [inhibitor, single point]
10 | Cc1ccc(C)c(NC(=S)N2CCN(Cc3ccccc3)CC2)c1 | – | inconclusive: 13.1 µM [inhibitor, single point]
11 | O=c1c2ccccc2nc(N/N=C/c2c(O)ccc3ccccc23)n1O | – | active: 0.465 µM
12 | C=Cn1ccnc1P(=S)(c1ccc(N(C)C)cc1)c1nccn1C=C | – | inconclusive: 7.38 µM [inhibitor, single point]
13 | COC(=O)CCC(=O)CN | – | inconclusive: 16.9 µM [inhibitor, single point]
14 | COc1ccc(NC(=O)C2CCCN(S(=O)(=O)c3c(C)[nH]c(=O)[nH]c3=O)C2)cc1OC (configuration not stated) | – | inconclusive: 10.4 µM [inhibitor, partial curve]
15 | Cc1ccc(C)c(-c2nn(-c3cc(N4CCN(CCO)CC4)ccc3[N+](=O)[O-])c(=O)c3ccccc23)c1 | – | inconclusive: 7.38 µM [inhibitor, partial curve, poor fit]
16 | CCN(Cc1nc2cc(Cl)ccc2c(=O)[nH]1)C(=O)c1cc(C2CC2)nn1-c1ccccc1 | – | inconclusive: 18.5 µM [inhibitor, single point]
17 | O=C(NCC1CCN(C(=O)c2c(F)c(F)c(F)c(F)c2F)CC1)c1c(F)c(F)c(F)c(F)c1F | – | inconclusive: 9.28 µM [inhibitor, single point]
18 | COc1ccc(CCN2CC34C=CC(O3)C(C(=O)NCc3ccccc3Cl)C4C2=O)cc1OC (configuration not stated) | – | inconclusive: 10.4 µM [inhibitor, single point]
19 | COC(=O)Cn1cnc2c(cnn2-c2ccccc2)c1=O | – | inconclusive: 2.62 µM [inhibitor, single point]
20 | CC(Sc1nc(-c2ccccc2)cc(C(F)(F)F)n1)C(=O)Nc1sc2c(c1C(N)=O)CCC2 (configuration not stated) | – | inconclusive: 13.1 µM [inhibitor, single point]
21 | NC(=O)Cn1c(=O)n(Cc2ccccc2)c(=O)c2cccnc21 | inactive: -2.19% | –

Row | Structure (SMILES) | activity change, negative = inhibition | Potency
22 | O=C(CSc1nc2ccccc2n1-c1ccccc1)NCC1CCCO1 (configuration not stated) | – | inconclusive: 18.5 µM [inhibitor, single point]
23 | CCc1cccc(NC(=O)CSc2nc3c(c(=O)[nH]2)CCCC3)c1 | – | active: 8.28 µM
24 | Cc1ccc(C2OC(=O)C=C2c2ccccc2)cc1 (configuration not stated) | inactive: 0% | –
25 | Cc1c(OCC(=O)N2CCN(c3ccccc3)CC2)ccc2c3c(c(=O)oc12)CCCC3 | – | inconclusive: 13.1 µM [inhibitor, partial curve, poor fit]
26 | COc1ccc(CCNC(=O)c2cc(=O)[nH]c3ccc(Br)cc23)cc1OC | – | inconclusive: 5.22 µM [inhibitor, partial curve, poor fit]
27 | CCN(CC(=O)Nc1c(F)cccc1F)C(=O)c1ccc(Cl)c(S(=O)(=O)N2CCCCC2)c1 | – | inconclusive: 5.86 µM [inhibitor, partial curve]
28 | O=Cc1coc2ccc3ccccc3c2c1=O | – | inconclusive: 18.5 µM [inhibitor, single point]
29 | Cc1noc(C)c1COc1ccc(C(=O)OCC(=O)N2CC(=O)Nc3ccccc32)cc1 | – | inconclusive: 0.262 µM [inhibitor, full curve]
30 | CC(C)C(NC(=O)c1ccc(C(C)(C)C)cc1)C(=O)Nc1cccc(S(N)(=O)=O)c1 (configuration not stated) | – | inconclusive: 10.4 µM [inhibitor, single point]
31 | Cc1nn(C2CCS(=O)(=O)C2)c(Cl)c1/C=C/C(=O)OCC(=O)N(C)C (configuration not stated) | – | inconclusive: 4.15 µM [inhibitor, single point]
32 | NC(=O)c1sc2nc3c(c(-c4cccnc4)c2c1N)CCC3 | – | inconclusive: 0.37 µM [inhibitor, full curve, poor fit]
33 | CC(=O)c1cccc(NC(=O)c2cc(-c3ccc(F)cc3)on2)c1 | – | inconclusive: 0.0738 µM [inhibitor, full curve, poor fit]
34 | COc1ccc(OC)c(NC(=S)N2c3ccccc3CC2C)c1 (configuration not stated) | – | inconclusive: 18.5 µM [inhibitor, single point]
35 | CSc1nc2nc3c(cc2c(=O)n1-c1ccccc1C)CCCC3 | – | inconclusive: 0.415 µM [inhibitor, full curve, poor fit]
36 | O=C(CCNS(=O)(=O)c1ccccc1)N1CCCCCCC1 | inactive: 27.3% | –
37 | O=C(NCCCO)NC12CC3CC(CC(C3)C1)C2 | – | inconclusive: 18.5 µM [inhibitor, single point]
38 | CCOC(=O)C1(CC2CCCCO2)CCN(S(=O)(=O)c2c(C)nn(C)c2C)CC1 (configuration not stated) | – | inconclusive: 18.5 µM [inhibitor, single point]
39 | CCOC(=O)C1CCCN(C(=O)CC(C)c2ccccc2)C1 (configuration not stated) | inactive: -15.3% | –
40 | COc1ccc(-n2cnc3cc(NCc4cccs4)ccc32)cc1 | inactive: 8.13% | –
41 | CCOc1ccc(C(C)=O)cc1CSc1nnc(-c2ccoc2C)n1N | – | inconclusive: 5.86 µM [inhibitor, partial curve, poor fit]
42 | C/C(=N\NC(=S)Nc1c(C)cccc1C)c1ccc(O)cc1 | inactive: 0% | –

Looked up above:
Under Potency, O=c1c2ccccc2nc(N/N=C/c2c(O)ccc3ccccc23)n1O reads active: 0.465 µM
Under Potency, Cc1ccc(C)c(-c2nn(-c3cc(N4CCN(CCO)CC4)ccc3[N+](=O)[O-])c(=O)c3ccccc23)c1 reads inconclusive: 7.38 µM [inhibitor, partial curve, poor fit]
